Measured values published in PMC4742970 (Nature Communications, 2016).
Results are given in words; binding and its absence hold for the method and conditions named. Some entries that bind do so weakly or less than the wild type. Tags and fused reporters may be left off the sequences shown.

Biological target: T1, Msh2HA (Msh2 subunit with an HA epitope tag), expressed in S. cerevisiae (S. cerevisiae) (UniProt P25847)
T1 sequence: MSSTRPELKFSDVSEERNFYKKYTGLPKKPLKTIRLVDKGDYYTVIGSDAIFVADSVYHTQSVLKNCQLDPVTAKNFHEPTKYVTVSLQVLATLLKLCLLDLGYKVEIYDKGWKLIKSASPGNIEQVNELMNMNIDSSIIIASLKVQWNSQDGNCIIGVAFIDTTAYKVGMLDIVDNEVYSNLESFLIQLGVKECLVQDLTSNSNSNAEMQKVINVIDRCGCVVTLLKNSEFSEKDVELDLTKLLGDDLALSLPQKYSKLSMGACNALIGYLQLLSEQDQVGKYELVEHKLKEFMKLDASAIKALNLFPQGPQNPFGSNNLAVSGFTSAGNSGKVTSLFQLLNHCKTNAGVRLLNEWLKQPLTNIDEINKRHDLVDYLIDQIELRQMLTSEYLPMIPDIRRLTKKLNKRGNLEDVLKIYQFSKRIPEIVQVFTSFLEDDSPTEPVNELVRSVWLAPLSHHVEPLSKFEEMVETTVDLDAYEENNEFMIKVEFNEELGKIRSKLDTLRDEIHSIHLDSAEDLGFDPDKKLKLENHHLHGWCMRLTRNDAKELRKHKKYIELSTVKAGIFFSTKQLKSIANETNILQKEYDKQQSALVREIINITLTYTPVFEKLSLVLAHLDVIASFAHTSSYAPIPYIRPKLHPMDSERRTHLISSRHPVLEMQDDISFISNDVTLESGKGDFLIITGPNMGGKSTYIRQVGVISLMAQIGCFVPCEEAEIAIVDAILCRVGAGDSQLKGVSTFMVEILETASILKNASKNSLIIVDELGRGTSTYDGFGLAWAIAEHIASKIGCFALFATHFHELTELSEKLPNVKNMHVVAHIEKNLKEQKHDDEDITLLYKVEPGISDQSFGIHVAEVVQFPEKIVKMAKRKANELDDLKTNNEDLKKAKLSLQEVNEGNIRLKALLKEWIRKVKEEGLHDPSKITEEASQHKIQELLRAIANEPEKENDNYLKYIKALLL
Assay: co-purification by chromatography; the two subunits overexpressed in S. cerevisiae and purified together by sequential ion exchange chromatography and ssDNA-affinity chromatography

B1: Msh3, expressed in S. cerevisiae (protein, UniProt P25336 1-1018)
chain: MAGQPTISRFFKKAVKSELTHKQEQEVAVGNGAGSESICLDTDEEDNLSSVASTTVTNDSFPLKGSVSSKNSKNSEKTSGTSTTFNDIDFAKKLDRIMKRRSDENVEAEDDEEEGEEDFVKKKARKSPTAKLTPLDKQVKDLKMHHRDKVLVIRVGYKYKCFAEDAVTVSRILHIKLVPGKLTIDESNPQDCNHRQFAYCSFPDVRLNVHLERLVHHNLKVAVVEQAETSAIKKHDPGASKSSVFERKISNVFTKATFGVNSTFVLRGKRILGDTNSIWALSRDVHQGKVAKYSLISVNLNNGEVVYDEFEEPNLADEKLQIRIKYLQPIEVLVNTDDLPLHVAKFFKDISCPLIHKQEYDLEDHVVQAIKVMNEKIQLSPSLIRLVSKLYSHMVEYNNEQVMLIPSIYSPFASKIHMLLDPNSLQSLDIFTHDGGKGSLFWLLDHTRTSFGLRMLREWILKPLVDVHQIEERLDAIECITSEINNSIFFESLNQMLNHTPDLLRTLNRIMYGTTSRKEVYFYLKQITSFVDHFKMHQSYLSEHFKSSDGRIGKQSPLLFRLFSELNELLSTTQLPHFLTMINVSAVMEKNSDKQVMDFFNLNNYDCSEGIIKIQRESESVRSQLKEELAEIRKYLKRPYLNFRDEVDYLIEVKNSQIKDLPDDWIKVNNTKMVSRFTTPRTQKLTQKLEYYKDLLIRESELQYKEFLNKITAEYTELRKITLNLAQYDCILSLAATSCNVNYVRPTFVNGQQAIIAKNARNPIIESLDVHYVPNDIMMSPENGKINIITGPNMGGKSSYIRQVALLTIMAQIGSFVPAEEIRLSIFENVLTRIGAHDDIINGDSTFKVEMLDILHILKNCNKRSLLLLDEVGRGTGTHDGIAISYALIKYFSELSDCPLILFTTHFPMLGEIKSPLIRNYHMDYVEEQKTGEDWMSVIFLYKLKKGLTYNSYGMNVAKLARLDKDIINRAFSISEELRKESINEDALKLFSSLKRILKSDNITATDKLAKLLSLDIH
B1 was tested, and the binding was “binds”.
